These are yes or no findings as the source states them, for the method shown. Binding seen in cells or lysates may run through a third protein. Some results given as binding are weak or reduced against the parent protein; the word gives no strength. Sequences can lack the tags named with a protein.

Amino acid sequences for entries named in this document (tags omitted).
UniProt P26038: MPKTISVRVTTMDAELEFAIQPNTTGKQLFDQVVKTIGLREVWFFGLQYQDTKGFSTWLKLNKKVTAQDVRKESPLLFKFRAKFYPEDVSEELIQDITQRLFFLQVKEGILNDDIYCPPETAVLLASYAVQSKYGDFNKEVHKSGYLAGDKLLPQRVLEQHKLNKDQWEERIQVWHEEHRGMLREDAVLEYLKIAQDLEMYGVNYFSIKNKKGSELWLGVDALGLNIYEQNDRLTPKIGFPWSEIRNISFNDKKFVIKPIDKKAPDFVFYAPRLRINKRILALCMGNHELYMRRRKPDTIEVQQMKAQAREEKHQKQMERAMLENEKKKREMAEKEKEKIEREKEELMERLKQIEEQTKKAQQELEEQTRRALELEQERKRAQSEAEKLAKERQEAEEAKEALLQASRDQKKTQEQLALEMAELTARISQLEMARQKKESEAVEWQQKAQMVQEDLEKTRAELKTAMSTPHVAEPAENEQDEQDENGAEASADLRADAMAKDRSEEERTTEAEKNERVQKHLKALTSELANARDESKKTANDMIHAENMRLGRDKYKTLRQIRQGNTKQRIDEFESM

Assay [1] has as its target His-Moesin (wild type) (UniProt P26038). Briefly: pull-down; MCF7 cells transfected 36 h, 5 µM MG132 6 h; His-Moesin pulled down with Ni-NTA beads from whole-cell extracts, immunoblot (Fig. 5I, Fig. 6F). (In western blotting, separated proteins are transferred to a membrane and probed.)
Assay [2] shares this target. Description: co-IP; MCF7 (and MDA-MB-231) cells transfected 36 h, MG132 6 h; whole-cell lysates immunoprecipitated with anti-His antibody, immunoblot.

B1: FLAG-FBXW2, full length (protein, UniProt Q9UKT8 1-454)
chain: MERKDFETWLDNISVTFLSLTDLQKNETLDHLISLSGAVQLRHLSNNLETLLKRDFLKLLPLELSFYLLKWLDPQTLLTCCLVSKQWNKVISACTEVWQTACKNLGWQIDDSVQDALHWKKVYLKAILRMKQLEDHEAFETSSLIGHSARVYALYYKDGLLCTGSDDLSAKLWDVSTGQCVYGIQTHTCAAVKFDEQKLVTGSFDNTVACWEWSSGARTQHFRGHTGAVFSVDYNDELDILVSGSADFTVKVWALSAGTCLNTLTGHTEWVTKVVLQKCKVKSLLHSPGDYILLSADKYEIKIWPIGREINCKCLKTLSVSEDRSICLQPRLHFDGKYIVCSSALGLYQWDFASYDILRVIKTPEIANLALLGFGDIFALLFDNRYLYIMDLRTESLISRWPLPEYRKSKRGSSFLAGEASWLNGLDGHNDTGLVFATSMPDHSIHLVLWKEHG
In the case of B1, the binding result in the assay with His-Moesin (wild type) [1] and with His-Moesin (wild type) [2] was “binds” each time.

The values above are taken from PMC10517019.
